Data reported in patent US12201696B2, “Multiplexed analysis of materials for tissue delivery” (Georgia Tech Research Corporation, priority 2017, dated 2025).
Some of these results come from one statement about several compounds together. At least one structure is not confirmed: it was looked up by name or label, or the drawing left a doubt.

Test system: HEK293 cells stably transduced with a CMV-lox-GFP-stop-lox-RFP construct
Assay: Endocytosis inhibition in LGSL-RFP HEK cells
Type: cell-based
Details: pre-treatment 1 hour before pooled 54 LNPs (100 ng total mRNA); chlorpromazine 100 μM, genistein 100 μM, EIPA 50 μM
Procedure: For experiments shown in FIG. 1, cells were incubated with endocytosis inhibitors 1 hour prior to incubation with pooled LNPs against clathrin-mediated endocytosis (chlorpromazine, 100 μM, Alfa Aesar), caveolae-mediated endocytosis (genistein, 100 μM, TCI America), and macropinocytosis (5-(N-Ethyl-N-isopropyl) Amiloride, EIPA, 50 μM, Toronto Research Chemicals).
To determine whether FIND could simultaneously measure delivery mediated by many nanoparticles, 54 chemically distinct LNPs were formulated (Table 5, FIGS. 4J-4O); each carried Cre mRNA and a unique DNA barcode. The LNPs were administered to HEK cells in a 6 well plate using an mRNA dose of 10, 100, or 1000 ng/well, and a mRNA: DNA barcode mass ratio of 10:1. A dose-dependent increase in RFP^+ cells was observed, with over 80% of the cells RFP^+ at 1000 ng 72 hours after transfection (FIG. 1G). Barcodes were deep sequenced at all 3 doses, reasoning that LNPs which delivered barcodes at the lowest dose (4% RFP^+ cells) would also deliver LNPs at the middle dose (20% RFP^+ cells). There was a strong relationship between normalized delivery at these 2 doses (FIG. 1H). […] Finally, it was evaluated whether the number of RFP^+ cells decreased when cells were pre-treated with Chlorpromazine, Genistein, or Ethylisopropyl amiloride (EIPA), which inhibit clathrin-, caveolin-, and macropinocytosis-mediated endocytosis, respectively. […]

CCN(c1nc(N)c(C(=O)N=C(N)N)nc1Cl)C(C)C [EIPA, 5-(N-Ethyl-N-isopropyl) Amiloride]
decrease in number of RFP+ cells compared to cells not treated with inhibitors: 40-60%
